Assay results taken from patent publication US10426773B2, “Systems pharmacology for treating ocular disorders” (Case Western Reserve Univeristy, priority 2011, dated 2019).

System: Abca4−/−Rdh8−/− mice
Assay: Bright light-induced retinal degeneration in Abca4−/−Rdh8−/− mice, OCT imaging of retinal structure
Type: in vivo, mouse
Conditions: ip, dose of each compound in column Dose of Table 1

Question: With `CN1CCC(=C2c3ccccc3C=Cc3ccccc32)CC1.Cl` [Cyproheptadine] as the compound, how does the “Effect (effectiveness at preventing light-induced photoreceptor degeneration as measured by OCT imaging)” value read?
Answer: toxic
